These are yes or no findings as the source states them, for the method shown. Some binding calls cover weakened binding; strength is not graded here.

Amino acid sequences for entries named in this document (tags omitted). Residues count along the entry.
UniProt P03452, residues 18-565: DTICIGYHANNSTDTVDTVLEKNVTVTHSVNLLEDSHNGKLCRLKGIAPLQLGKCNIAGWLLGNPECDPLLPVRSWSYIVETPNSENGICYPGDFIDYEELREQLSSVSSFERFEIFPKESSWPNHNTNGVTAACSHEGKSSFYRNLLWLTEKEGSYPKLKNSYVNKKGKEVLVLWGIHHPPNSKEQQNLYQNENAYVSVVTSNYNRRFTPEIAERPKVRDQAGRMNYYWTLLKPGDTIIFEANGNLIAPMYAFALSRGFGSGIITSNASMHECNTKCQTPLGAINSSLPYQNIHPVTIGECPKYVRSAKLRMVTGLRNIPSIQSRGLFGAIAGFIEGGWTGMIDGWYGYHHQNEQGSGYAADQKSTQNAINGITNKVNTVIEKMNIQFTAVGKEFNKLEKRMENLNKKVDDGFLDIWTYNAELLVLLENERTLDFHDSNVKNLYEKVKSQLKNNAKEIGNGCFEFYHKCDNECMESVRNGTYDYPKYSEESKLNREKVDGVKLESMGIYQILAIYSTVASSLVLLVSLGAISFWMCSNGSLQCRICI
UniProt Q8C567, residues 17-255: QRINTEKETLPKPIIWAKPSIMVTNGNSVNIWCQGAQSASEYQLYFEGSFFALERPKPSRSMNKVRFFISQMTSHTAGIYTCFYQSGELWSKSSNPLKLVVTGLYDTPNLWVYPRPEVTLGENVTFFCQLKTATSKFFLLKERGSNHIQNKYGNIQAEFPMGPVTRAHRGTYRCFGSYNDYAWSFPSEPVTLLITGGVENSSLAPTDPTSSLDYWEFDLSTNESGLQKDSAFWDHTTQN

The assay concerns the target HA of human influenza virus A/Puerto Rico/8/34 H1N1 (PR8), on the virus and on PR8-treated EL4 cells (influenza A/Puerto Rico/8/34 H1N1 (PR8)) (UniProt P03452). The experiment in a line: flow cytometry on cells; only the binder purified. On the technique in general: In flow cytometry, cells or beads pass a laser one at a time.

Take “Ncr1 Ig fusion protein (extracellular part of mouse Ncr1 fused to human IgG1) (from UniProt Q8C567 17-255) (Fc fusion)”: the binding result is given as “binds”.

For “Ncr1 Ig grown in medium containing tunicamycin (from UniProt Q8C567 17-255) (Fc fusion)”, the binding result is “binds”.
